These are literature values, as cited in patent US20060068015A1, “Solid dosage form comprising a fibrate and a statin” (priority 2003, published 2006).

`CC(C)c1c(C(=O)Nc2ccccc2)c(-c2ccccc2)c(-c2ccc(F)cc2)n1CC[C@@H](O)C[C@@H](O)CC(=O)O` [Atorvastatin]: the “plasma concentrations lower (Cmax and AUC) following evening compared with morning administration” value (evening vs morning) is recorded as “approximately 30%”. Where the note is “with food”, the “food decreases the extent of drug absorption, as assessed by AUC” value was around 9% and the “food decreases the rate of drug absorption, as assessed by Cmax” value is “approximately 25%”.
